# Experimental data: the supplement of paper PMC12350171
# Counter-ions that a name gives are not always drawn. The hits were mostly taken out for another list; the other results follow.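 Rule for the calls: active = AUC significantly below DMSO controls by Student t-fit with adjusted P under 0.01; inactive = not significantly reduced.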
# Test system: Haemophilus parainfluenzae
# Test: growth AUC normalised to DMSO control (fraction of control); higher = less growth inhibition, active = hit call of the paper
# Conditions: 20 µM
# In short: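 Three biological replicates were carried out, with OD578 read hourly for 24 h. Before inoculation at a starting OD578 of 0.01, pathogens were passaged anaerobically twice; plates were pre-reduced mGAM containing 20 μM compound and 1% DMSO, sealed with breathable membranes, and the Haemophilus parainfluenzae medium carried added hemin and NAD. Area under each growth curve was calculated by the trapezoidal rule up to the exponential-to-stationary transition and normalised to DMSO controls on the same plate.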
smiles,measurement,value
"CN1[C@@H]2CC[C@H]1CC(OC(=O)C(O)c1ccccc1)C2 (mixture of isomers) [(R,S) Homatropine hydrobromide]",growth AUC normalised to DMSO control,inactive: 1.01
